These are yes or no findings as the source states them, for the method shown. In cells and extracts the contact can be indirect. These calls come from enrichment with a bait or labelling near it, and not all partners need be listed.

Protein sequences, listed by entry. Tags and fused reporters are not part of them.
UniProt Q9CPN8: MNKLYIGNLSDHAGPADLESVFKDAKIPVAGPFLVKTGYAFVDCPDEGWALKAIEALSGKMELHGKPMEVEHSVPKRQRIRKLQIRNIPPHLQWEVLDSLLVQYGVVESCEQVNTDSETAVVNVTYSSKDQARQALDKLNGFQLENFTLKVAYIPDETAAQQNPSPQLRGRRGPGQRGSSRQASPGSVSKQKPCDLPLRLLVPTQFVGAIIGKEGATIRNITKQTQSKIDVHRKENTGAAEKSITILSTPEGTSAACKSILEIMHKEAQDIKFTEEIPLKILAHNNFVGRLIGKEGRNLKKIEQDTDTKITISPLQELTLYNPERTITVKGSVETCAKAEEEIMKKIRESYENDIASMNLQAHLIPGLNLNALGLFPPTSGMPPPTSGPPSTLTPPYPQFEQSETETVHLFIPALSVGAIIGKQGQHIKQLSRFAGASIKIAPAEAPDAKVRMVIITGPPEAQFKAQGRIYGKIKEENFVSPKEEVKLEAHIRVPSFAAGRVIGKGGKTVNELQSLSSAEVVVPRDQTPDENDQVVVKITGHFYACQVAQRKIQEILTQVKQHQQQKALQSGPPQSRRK
UniProt Q9Z2C8: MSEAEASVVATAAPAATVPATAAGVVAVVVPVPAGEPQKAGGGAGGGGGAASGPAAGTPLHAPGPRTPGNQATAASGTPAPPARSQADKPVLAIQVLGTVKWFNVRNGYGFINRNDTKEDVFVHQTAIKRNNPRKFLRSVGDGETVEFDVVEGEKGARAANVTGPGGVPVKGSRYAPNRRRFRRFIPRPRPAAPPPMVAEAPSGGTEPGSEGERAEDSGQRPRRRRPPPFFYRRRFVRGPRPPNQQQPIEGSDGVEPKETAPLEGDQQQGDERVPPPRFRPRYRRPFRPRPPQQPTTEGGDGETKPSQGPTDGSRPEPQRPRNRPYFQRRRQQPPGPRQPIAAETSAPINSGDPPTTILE

The target of this experiment is Insulin-like growth factor 2 mRNA-binding protein 3 (IGF2BP3), endogenous in mouse round spermatids (mouse (endogenous in round spermatids)) (UniProt Q9CPN8). Nature of the experiment: affinity purification with mass spectrometry; round spermatids of adult mouse testes lysed in IP lysis buffer; IgG or IGF2BP3 antibody-conjugated beads, 4 °C overnight; tryptic digest, LTQ Orbitrap Velos.

As for “YBX2, endogenous in mouse round spermatids (from UniProt Q9Z2C8 1-360)”, the binding result is listed as “binds”.

For the origin of these results see publication PMC12811620.
